Measured data: PubChem BioAssay AID1224827 (NIAID, 2016)
Shown is one part, drawn at random, of about 3,800 reagents. Of all reagents, about 2,200 (57%) got an active call. 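Active means a strong reporter change in either direction; calls are per siRNA, not per gene; qiagen siRNAs gave weaker effects.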 Unmarked entries are inactive. Further read-outs or replicates are left out here. No sequences are given here.

Assay: 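Confirm genes whose knock-down changes LPS-driven TNF promoter activity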 (follow-up of hits)
System: RAW264.7 G9 mouse macrophage reporter clone
Reagent: single siRNA against mouse genes, 100 nM siRNA
Timing: siRNA for 2 days, then LPS about 16 h
Challenge: bacterial lipopolysaccharide (LPS), 10 ng/ml, cells fixed after overnight (about 16 h) stimulation
Read-out: 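TNF promoter reporter red fluorescence in nuclei, background subtracted, normalised per plate and to non-targeting control siRNA, as z-scores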
Direction: TNF reporter z-score, mean: higher = stronger Tnf promoter reporter signal
Call rule: 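Active siRNA: replicate-mean z-score of 2 or more, or -2 or less; no calls for control wells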

Knock-down of Lrrc59 (GeneID 98238) [SID315487389] gave: TNF reporter z-score, mean -1.35.
For Lrrc59 (GeneID 98238) [SID315487390] the deposit lists TNF reporter z-score, mean -3.05 (active).
Knock-down of Lrrc59 (GeneID 98238) [SID315487391] gave: TNF reporter z-score, mean -4.73 (active).
With knock-down of Lrrc59 (GeneID 98238) [SID315487392], the screen gave TNF reporter z-score, mean 4.57 (active).
Lrrc59 (GeneID 98238) [SID315487393] scored TNF reporter z-score, mean -0.167.
Lrrc59 (GeneID 98238) [SID315487394] showed TNF reporter z-score, mean -0.733.
Slc10a4 (GeneID 231290) [SID315488349] gave TNF reporter z-score, mean -2.2 (active).
Slc10a4 (GeneID 231290) [SID315488350] scored TNF reporter z-score, mean -2.84 (active).
Silencing of Slc10a4 (GeneID 231290) [SID315488351] came out at: TNF reporter z-score, mean -3.9 (active).
After knock-down of Slc10a4 (GeneID 231290) [SID315488352], the record shows TNF reporter z-score, mean 2.69 (active).
For Slc10a4 (GeneID 231290) [SID315488353], the entry reads TNF reporter z-score, mean 1.15.
Knock-down of Slc10a4 (GeneID 231290) [SID315488354] resulted in: TNF reporter z-score, mean -0.235.

2 neighbouring records already listed, for reference:
Slc10a4 (GeneID 231290) [SID315488353] → TNF reporter z-score, mean = 1.15
Slc10a4 (GeneID 231290) [SID315488354] → TNF reporter z-score, mean = -0.235
